From paper PMC7862700 come the findings set out here.

The entries are a selection whose mix differs from that of the whole data set. At the low end of the ranking the order means little.

The experiment concerns the target SPI1 (UniProt P17947). Put plainly: DAPPL (digital affinity profiling via proximity ligation, sequencing). As to conditions: 10 mM Tris-HCl pH 7.5, 50 mM NaCl, 1 mM DTT, 4% glycerol, room temperature, 30 min; GST-TFs on glutathione beads, 16-mer random dsDNA library, 0.1% …; high values mean tight binding; double strand, one strand shown; scale: fold enrichment (6-mer frequency, TF over GST control).
Consider AGATCG, for which the binding signal amounted to 0.457. Then AGTGAA, with 1.26; and CATCGG, with 0.675; and GAGACA, with 0.39. Then AGCCCG, with 0.89; and GGAGAA, with 0.333; and GTGGAG, with 0.452. Then GAGGAT, with 0.554; and GTGGGT, with 0.503.

For GGTTCG, the binding signal came out at 0.778. Take GACGCT: the binding signal was 0.735. In turn, CGTGTA yielded a binding signal of 0.624. Under GGATCG stands 0.601; under GGGCAA, 0.858; under GGTTAG, 0.783. Under GTGAGT stands 0.137; under GACGGC, 0.718. Then ATCGGA, with 0.399. In turn, GTCGAT yielded a binding signal of 0.705. Then GCAAGT, with 0.791; and AGCGAG, with 0.642.

In turn, GTCGTG yielded a binding signal of 0.383.

GAGTGG yielded a binding signal of 0.576. Under CAAGGA stands 0.762; under GAGGCT, 0.489. Then GTCGTC, with 0.722. Then TGACGT, with 0.977. GCGTAG came in with a binding signal of 0.816. In turn, GTTGGG returned a binding signal of 0.702. Then AGATTG, with 0.784; and GGAGCT, with 0.588; and CGCAGT, with 0.783. With GGTCGC, the binding signal was determined as 0.848. Under GAGGGT stands 0.547. Under GAATCG stands 0.604; under GTCAGT, 0.635; under AAGGTG, 0.925. Then GGATTG, with 0.746; and AGATAG, with 0.793. Take CGCTGA: the binding signal turned out to be 0.821.
